From PubChem BioAssay AID685 (PCMD, 2007)
Several values for one entry are separate records, joined by “and”; a condition that tells them apart may be missing. Equal entries are not always repeated. Among all 30,000 compounds or so, about 80 (0.3%) were called active. Inconclusive results, whose numbers are uncertain, are shown with a selection of clear calls.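 How the source made its calls: active means mutant and wild-type yeast strains alike exhibit over 30% growth inhibition; inconclusive means a strain exceeds 50% while the second remains under 30%; inactive means the rest.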

Test: yeast growth toxicity, wild-type and mutant, primary screen, cytotoxicity control for eIF2B function restoration project, wild-type and eIF2Bepsilon R284H mutant, A595 (AID 685);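 further: 0% = untreated cell controls and 100% = YPD media blanks without cells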
Settings: S. cerevisiae wild-type growth, A595 turbidity, 16 h; stronger effect = higher value; screened at 25 µM (by protocol)
Outline: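 System – wild-type and eIF2Bepsilon-R284H mutant S. cerevisiae, screened separately · Measured by – absorbance at 595 nm (turbidity) · Timing – 16 h compound exposure during growth at 30 °C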

| Compound | growth inhibition |
| --- | --- |
| O=C(CCS(=O)(=O)c1ccc(Br)s1)N1CCc2ccccc21 | inactive: 14.7% |
| CC(=O)SC(C[N+](=O)[O-])c1cn(C(C)=O)c2ccccc12 (configuration not stated) | inconclusive: -5.56% |
| Cc1ccc(/C=N/n2cnnc2)s1 | inconclusive: 82.5% |
| O=C(NCC1CCC(C(=O)O)CC1)OCc1ccccc1 (configuration not stated) | inactive: -12.5% |
| COc1ccccc1-c1nnc2sc(COc3ccc(Cl)cc3)nn12 | inactive: 2.11% |
| CC(=O)Nc1ccc(NC(=O)Oc2ccccc2)cc1 | inactive: -11.1% |
| CCC(=O)OCCNc1cc(Sc2nc3ccccc3s2)c2nonc2c1[N+](=O)[O-] | active: 52.4% |
| COc1cc(OC)c(S(=O)(=O)N2CCCCC2)cc1S(=O)(=O)N1CCCCC1 | inactive: -11.3% |
| Cc1cc(OCC(=O)Nn2cnnc2)ccc1Br | inactive: 8.86% |
| COc1cccc(C2C3=C(CCCC3=O)Nc3nc4ccccc4n32)c1OC (configuration not stated) | inactive: -16.7% |
| COC(=O)c1sc2ccc(C)cc2c1C(=O)OC | inconclusive: 57.2% |
| CCSc1nnc(NC(=O)c2ccccn2)s1 | active: 66.2% |
| COc1ccc(S(=O)(=O)Nc2ccc3c(c2)OCO3)cc1C | inconclusive: 53.9% |
| CCn1ncc(C2=NOC(C(=O)Nc3cnn(C45CC6CC(CC(C6)C4)C5)c3)C2)c1C (configuration not stated) | inactive: 11% |
| CCCCCCC(=O)N(O)C1CC(=O)N(c2ccc(Br)cc2)C1=O (configuration not stated) | inconclusive: 17.6% |
| COc1ccc(C2(CNC(=O)c3ccco3)CCOCC2)cc1 | inconclusive: 73.5% |
| CN(C(=O)C1CCCO1)c1nnc(-c2ccccn2)s1 (configuration not stated) | inconclusive: 51.7% |
| Cc1ccc(OCC(=O)Nc2ccc(-c3nc4ncccc4o3)cc2)c(C)c1 | inconclusive: 22.9% |
| Cc1ccc(C)c(Cn2c(C(=O)OC(C)C)cc3c2ccn3C)c1 | inactive: -13.4% |
| Cc1cc(C)nc(NC(=O)CCC2CCCC2)c1 | inconclusive: 50.3% |
| Cc1ccc(CSc2nnc(-c3cccnc3)n2N)cc1 | inactive: 28.3% |
| CCCC(=O)Nc1ccc(NC(=O)c2ccccn2)cn1 | inconclusive: 21.5% |
| COc1ccc(N(C(=O)Nc2ccc(Cl)cc2)C2=NCCC2)cc1 | inactive: 22.2% |
| Cc1noc(C)c1COc1ccc(C(=O)NCc2ccccn2)cc1 | inactive: 17.3% |
| O=C(O)c1ccc(OCC(O)Cn2cnc3ccccc32)cc1 (configuration not stated) | inconclusive: 55.2% |

An excerpt of these results, with bars between the fields:
Compound | growth inhibition
CCCC(=O)Nc1ccc(NC(=O)c2ccccn2)cn1 | inconclusive: 21.5%
COc1ccc(N(C(=O)Nc2ccc(Cl)cc2)C2=NCCC2)cc1 | inactive: 22.2%
Cc1noc(C)c1COc1ccc(C(=O)NCc2ccccn2)cc1 | inactive: 17.3%
O=C(O)c1ccc(OCC(O)Cn2cnc3ccccc32)cc1 (configuration not stated) | inconclusive: 55.2%

Additional compounds:

| Compound | growth inhibition |
| --- | --- |
| CCOC(=O)N1CCC(NC(=O)c2ccc(CNS(=O)(=O)c3ccc(F)cc3)cc2)CC1 | inactive: -48.6% |
| O=C(CCc1ccccc1)Nc1c(F)cccc1F | inactive: 10.3% |
| COC(=O)c1ccccc1OC(=O)c1ccc(Br)o1 | inactive: -10.4% |
| O=C(/C=C/c1ccccc1Cl)c1cccnc1 | active: 47.7% |
| CCCCCCCCC/C(=N\O)c1ccccn1 | inconclusive: 13% |
| CC(C)c1ccc(C(=O)CSc2n[nH]c(-c3ccncc3)n2)cc1 | inactive: 13.9% |
| COc1ccc(CN2CN(C(C)C)CSC2=S)cc1 | active: 44.7% |
| CN(C)C(=O)CN(c1ccc2c(c1)OCO2)S(C)(=O)=O | inconclusive: 59% |
| CCCCCCOc1ccc(/C(N)=N/O)cc1 | inconclusive: 18.9% |
| O=C(CSc1ncn[nH]1)Nc1cccc2ccccc12 | inconclusive: 53% |
| O=C(NC(=O)c1ccccc1)OCC(F)(F)F | inconclusive: 55.1% |
| CCn1nc(C)c(NC(=O)/C=C/c2ccc(OC)c(COc3ccc(Br)cc3)c2)c1C | active: 54.5% |
| Cc1cccc(-c2nnc(NC(=O)c3ccc(Cl)cc3)o2)c1 | active: 57.2% |
| CCN(CC)CCNC(=O)Cn1nc(Cc2ccccc2)c2ccccc2c1=O | inconclusive: 50% |
| CN1CCN(C(=O)c2cc3nc(-c4ccccc4)cc(C(F)(F)F)n3n2)CC1 | inconclusive: 55.6% |
| Nc1c(C(=O)NCc2ccc(F)cc2)c2nc3ccccc3nc2n1CCCN1CCOCC1 | inconclusive: 50.7% |
| Cc1ccc(S(=O)(=O)N2CCOCC2)cc1NC(=O)COC(=O)CCC(=O)c1cccs1 | inconclusive: 101% |
| CCCCCCC(=O)N(O)C1CC(=O)N(c2ccc(C)cc2)C1=O (configuration not stated) | inconclusive: 6.21% |
| CN1CCN(C2=Cc3ccccc3Sc3cc(F)c(F)cc32)CC1 | active: 94.2% |
| O=C(Nc1ccc2c3c(cccc13)CC2)c1ccco1 | inconclusive: 8.48% |
| COc1cc(S(=O)(=O)N2CCN=C2c2ccccc2)ccc1F | inconclusive: 57.2% |
| CCc1c(O)nc(SCC(=O)Nc2ccccc2)n(-c2ccccc2)c1=O | inconclusive: 54.8% |
| Cc1cccc(N2C(=O)C3C4C=CC(C4)C3C2=O)c1 (configuration not stated) | inactive: -6.05% |
| O=C(CN1CCSCC1)N/N=C/c1ccc(F)cc1 | inactive: 10% |
| Cc1ccc(SCCC(=O)Nc2cccc(N(C)S(C)(=O)=O)c2)cc1 | inconclusive: 71.9% |

| Compound | growth inhibition |
| --- | --- |
| C=CCc1c(C)c(C#N)c2nc3ccccc3n2c1NCCN(C)C | active: 95.5% |
| CCS(=O)(=O)N1CCC(C(=O)NCc2ccc(F)cc2Cl)CC1 | inactive: 0.62% |
| O=C(Nn1cnc2ccccc2c1=O)c1ccccc1Cl | inconclusive: 54.8% |
| O=C(O)c1ccc(CSc2n[nH]c(-c3ccco3)n2)cc1 | inactive: -13.3% |
| COC(=O)c1cc2c(=O)n3ccccc3nc2n(C)c1=N | active: 31.9% |
| Fc1ccc(SCCc2ccncc2)cc1 | active: 58.6% and inconclusive: 51.7% |
| Cc1occc1-c1nnc(SCC(=O)NC2CCCC2)n1-c1ccccc1 | inconclusive: -3.75% |
| Cc1nn2c(C)c(C(=O)Nc3ccccc3)cnc2c1C#N | inconclusive: 99% |
| O=c1c2ccccc2nnn1Cc1nnc(-c2ccccc2Br)o1 | inconclusive: 54.4% |
| CC1(CC(=O)O)C(=O)N=C2C=CC=CN21 (configuration not stated) | inconclusive: 3.4% |
| CCn1c(=S)sc2c(=O)n(-c3ccccc3)c(SCC(=O)NCc3ccco3)nc21 | inconclusive: 12.8% |
| COc1ccc(OCCn2c(=N)n(CCO)c3ccccc32)cc1 | inconclusive: 54.2% |
| COCCN1CSC(=S)N(Cc2ccco2)C1 | inconclusive: 25.8% |
| CC(C)(C)c1cc(NCCCn2ccnc2)n2ncc(-c3ccc(Cl)cc3)c2n1 | inconclusive: -4.55% |
| CC1=NOC(=O)/C1=C\c1ccc(-c2cc(Cl)ccc2Cl)o1 | inconclusive: 64.2% |
| CCN1CCN(c2cc(C(C)(C)C)nc3c(-c4ccccc4)c(C)nn23)CC1 | inconclusive: -8.97% |
| COc1ccc(C(c2sc3nc(C)nn3c2O)N2CCC3(CC2)OCCO3)cc1 (configuration not stated) | inconclusive: 61.5% |
| CCc1ccc(N2CC(C(=O)Nc3nnc(CC)s3)CC2=O)cc1 (configuration not stated) | inactive: -2.43% |
| CCCC1COC(Cn2cncn2)(c2ccc(C)cc2)O1 (configuration not stated) | active: 93.4% |
| Cc1ccc(NC(=O)CSc2nc3ccccc3c3nc(CCc4c(C)n[nH]c4C)nn23)cc1F | inconclusive: 50.8% |
| CC1=C(C)/C(=N\OS(=O)(=O)c2ccccc2)C=CC1=O | active: 99.6% |
| CC1(C)Cc2c(sc(NC(=O)c3ccc(Br)o3)c2C#N)CO1 | inconclusive: 81.5% |
| CCC1CCCCN1CCNC(=O)CCS(=O)(=O)c1ccc(Br)cc1 (configuration not stated) | inactive: -5% |
| O=C(NC1CCCCC1)Sc1ccc(Cl)cc1 | active: 40.9% |
| Cc1ccnc2nc(C(=O)Nc3ccc(N4CCOCC4)cc3)nn12 | inactive: 23.7% |

| Compound | growth inhibition |
| --- | --- |
| CCc1nc2ccccc2n1Cc1ccccc1OC | inconclusive: 59.2% |
| Cc1ccc(-c2cc(NC(=O)CCl)n(-c3ccccc3)n2)cc1 | inconclusive: 5.67% |
| O=C(NCCCN1CCOCC1)C1(c2ccccc2)CCOCC1 | inconclusive: 3.96% |
| COc1ccccc1CNc1nc2ccccc2n1CCN1CCCCC1 | inconclusive: 55.7% |
| CC(C)COc1cc(=O)[nH]c(SCC(C)C)n1 | inconclusive: 55.9% |
| CCOc1ccc(N(CC(=O)NCC2CCCO2)C(=O)CCC(=O)Nc2ccccn2)cc1 (configuration not stated) | inconclusive: 52% |
| CCc1nc2ccccc2n1CC(=O)N(C(C)CC)C1CCS(=O)(=O)C1 (configuration not stated) | inactive: 5.26% |
| CCOc1ccc(NC(=O)CN2CCN(CC(=O)Nc3ccc(C(=O)OC)cc3)CC2)cc1 | inconclusive: -20.4% |
| CCN(CC)CCNc1c2c(c(C#N)c3nc4ccccc4n13)CCCC2 | inconclusive: -18.3% |
| Cc1ccc(CNc2ccc3c(c2)ncn3C)cc1 | inconclusive: 58.5% |
| CC(C)(Oc1ccc(Cl)cc1)C(=O)Nc1ccncc1 | active: 75.7% |
| O=C(CC(c1ccccc1)C1CCCCC1=O)c1ccco1 (configuration not stated) | inconclusive: 57.6% |
| CCCCC(=O)Nc1ccc2c(c1)OCCO2 | inconclusive: 7.74% |
| CCC(C)N(C(=O)COC(=O)CCc1c[nH]c2ccccc12)C1CCS(=O)(=O)C1 (configuration not stated) | inconclusive: 87.6% |
| COc1cccc(NC(=S)/C(=C(\[O-])c2ccc(C)c([N+](=O)[O-])c2)[n+]2ccccc2)c1 | inconclusive: 100% |
| Cc1nc2ccc(-c3ccccc3)cc2o1 | active: 32.4% |
| COc1cc2c(cc1OC)C(C(C)C)=NC(C)(C)C2 | inactive: 7.59% |
| CCN(CC)C(=O)CSc1nc(-c2ccc(C)cc2)nc2c1COC(C)(C)C2 | inconclusive: 85.2% |
| CCOc1ccccc1N(CC(=O)NC1CCCCC1)C(=O)CNC(=O)c1ccco1 | inconclusive: 60.9% |
| Cc1ccc(CNC(=O)CCNC(=O)Cn2ccc3ccccc3c2=O)o1 | inactive: 3.61% |
| Cc1cccc(C)c1NC(=O)CN(C)CC(=O)Nc1cc(Cl)ccc1C#N | inconclusive: 86.7% |
| CC(=O)/C=C/c1ccc2ccccc2n1 | inconclusive: 21.5% |
